# The supplement of paper PMC12889115
# The other results are listed elsewhere or left out. Values are raw readings; no control value is given beside them.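 First-pass screen: polymyxin B was added at a level that permeabilizes the Salmonella outer membrane while sparing the inner membrane. DMSO wells, with and without polymyxin B, defined maximum growth. Because plates differed from one another, each plate's data were ranked separately and the compounds with the lowest OD600 were carried forward as hits.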
# System: Salmonella enterica serovar Typhimurium SL1344
# Assay: bacterial growth OD600 after 18 h with compound and polymyxin B; higher = more bacterial growth (less inhibition)
# Details: 50 µM, Mueller-Hinton broth
structure (smiles),measurement,setting,value
CCN(Cc1ccncc1)C(=O)c1cc(COc2ccc(F)cc2F)on1,bacterial growth OD600,polymyxin B 0.75 µg/mL,0.753
CC[C@H](C)[C@H](NC(=O)c1cc(COc2ccc(F)c(F)c2)on1)C(=O)OC,bacterial growth OD600,polymyxin B 0.75 µg/mL,0.556
COc1ccc(NC(=O)CCC2CCN(C(=O)C3CC34CCCC4)CC2)c(OC)c1 (stereo not drawn),bacterial growth OD600,polymyxin B 1 µg/mL,0.941
Cc1ccc(Oc2ncccc2CNC(=O)c2cccc(F)c2)cn1,bacterial growth OD600,polymyxin B 1 µg/mL,0.785
CCN(Cc1ccncc1)C(=O)CCc1nnc(CCc2ccc(OC)cc2)o1,bacterial growth OD600,polymyxin B 1 µg/mL,0.95
COCC1CCN(C(=O)c2cc(COc3ccc(Cl)cc3OC)on2)C1 (stereo not drawn),bacterial growth OD600,polymyxin B 1 µg/mL,0.954
CO[C@H]1[C@H](NC(=O)Cc2cccs2)c2ccccc2C12CCN(Cc1cccc(C(C)=O)c1)CC2,bacterial growth OD600,polymyxin B 0.75 µg/mL,0.829
Cc1oc(-c2cccc(NC(=O)CCc3cccnc3)c2)nc1CNC(=O)c1ccc2cc[nH]c2c1,bacterial growth OD600,polymyxin B 0.75 µg/mL,0.657
CN(CC1Cc2ccccc2O1)c1ccc(-c2nc(C3CC3)no2)cn1 (stereo not drawn),bacterial growth OD600,polymyxin B 1 µg/mL,0.162
CCOC(=O)CN(C)C(=O)C1CCC(=O)N(Cc2cccc(OC)c2)C1 (stereo not drawn),bacterial growth OD600,polymyxin B 1 µg/mL,0.756
COCCNC(=O)C1CCCN(c2nc(-c3ccccc3)nc3c2CCC3)C1 (stereo not drawn),bacterial growth OD600,polymyxin B 0.75 µg/mL,0.875
CC1CN(c2ccc(-c3nc(-c4ccccc4F)no3)cn2)CCN1C (stereo not drawn),bacterial growth OD600,polymyxin B 1 µg/mL,1.04
Cc1cnc(C(=O)N2CCc3onc(-c4ccc(F)c(F)c4)c3C2)cn1,bacterial growth OD600,polymyxin B 0.75 µg/mL,0.786
CC#CCN1C(=O)NC(CCc2ccccc2)(C2CCN(Cc3cc(F)cc(F)c3)CC2)C1=O (stereo not drawn),bacterial growth OD600,polymyxin B 0.75 µg/mL,0.322
CN1CCNC(=O)C1CC(=O)N1CCCCCCC1 (stereo not drawn),bacterial growth OD600,polymyxin B 0.75 µg/mL,0.86
CC(CCn1cccn1)Nc1nncc(-c2cccc(F)c2)n1 (stereo not drawn),bacterial growth OD600,polymyxin B 0.75 µg/mL,0.858
COCCN1CCCC2(CCN(C(=O)c3ccc(C)s3)C2)C1=O (stereo not drawn),bacterial growth OD600,polymyxin B 1 µg/mL,0.809
O=C(C1=CCCC1)N1CCCC(Nc2ccc3c(c2)OCCO3)C1 (stereo not drawn),bacterial growth OD600,polymyxin B 1 µg/mL,0.836
Cc1ccc(CNc2nc(CN3CCN(C(C)C)CC3)nc3ccccc23)o1,bacterial growth OD600,polymyxin B 0.75 µg/mL,0.875
CCOC(=O)CC1CCCCN1Cc1nc(-c2ccc(C(=O)OC)cc2)oc1C (stereo not drawn),bacterial growth OD600,polymyxin B 1 µg/mL,1.08
CCN(CC1CCCN(CCc2cccc(F)c2)C1)C(=O)CCSC (stereo not drawn),bacterial growth OD600,polymyxin B 1 µg/mL,0.953
C=CCC(=O)N1CCC(C(=O)Nc2ccc(-c3nc4ccccc4o3)cc2)CC1,bacterial growth OD600,polymyxin B 1 µg/mL,0.958
CN1N=C(C(=O)N2CCCC(CCc3c(F)cccc3F)C2)CCC1=O (stereo not drawn),bacterial growth OD600,polymyxin B 0.75 µg/mL,0.864
CCOC(=O)CCNC(=O)N1CCCC(Cc2ccccc2)(C(=O)OCC)C1 (stereo not drawn),bacterial growth OD600,polymyxin B 1 µg/mL,1.12
CC(C)n1cc(CNCc2cccnc2N(C)C2CCCCC2)cn1,bacterial growth OD600,polymyxin B 1 µg/mL,1.02
c1csc(CNc2nc3nonc3nc2N2CCCN(Cc3cccs3)CC2)c1,bacterial growth OD600,polymyxin B 1 µg/mL,0.702
Cc1oc(-c2ccccc2NC(=O)C2CCC2)nc1CNC(=O)Cc1cc(F)cc(F)c1,bacterial growth OD600,polymyxin B 0.75 µg/mL,0.869
OCCN1CCN(Cc2cn(Cc3ccccc3)nc2-c2ccc3c(c2)OCO3)CC1,bacterial growth OD600,polymyxin B 0.75 µg/mL,0.785
C=CCCC(=O)N1CCC(C(=O)Nc2cccc(-c3cc4ccccc4[nH]3)c2)CC1,bacterial growth OD600,polymyxin B 1 µg/mL,0.666
COc1ccc(OC)c(-c2cc(Cl)c3c(c2)CC(CNC(=O)c2ccoc2C)O3)c1 (stereo not drawn),bacterial growth OD600,polymyxin B 0.75 µg/mL,0.009
COc1ccccc1C(=O)C1CCCN(C(=O)CCc2ccc3c(c2)OCO3)C1 (stereo not drawn),bacterial growth OD600,polymyxin B 1 µg/mL,0.969
COc1ccc(C(CC(=O)N2CCN(C(C)=O)CC2)c2ccccc2)cc1 (stereo not drawn),bacterial growth OD600,polymyxin B 1 µg/mL,0.818
COc1ccc(-c2noc(CN3CCN(c4ccccc4)CC3C)n2)c(OC)c1OC (stereo not drawn),bacterial growth OD600,polymyxin B 1 µg/mL,0.891

# Rewritten bar-delimited: entries from further up
structure (smiles) | measurement | setting | value
CO[C@H]1[C@H](NC(=O)Cc2cccs2)c2ccccc2C12CCN(Cc1cccc(C(C)=O)c1)CC2 | bacterial growth OD600 | polymyxin B 0.75 µg/mL | 0.829
COCCNC(=O)C1CCCN(c2nc(-c3ccccc3)nc3c2CCC3)C1 (stereo not drawn) | bacterial growth OD600 | polymyxin B 0.75 µg/mL | 0.875
